{"source": "PubChem BioAssay AID540276", "about": "(National Center for Advancing Translational Sciences (NCATS), 2011)", "note": "Among all 300,000 compounds or so, about 5,400 (1.8%) were called active. Inconclusive means that the source gave no clear call. Such entries were picked first, then a sample of the others. Calls come from the whole dose curve; tested in HEK293 cells. Potencies beside an inconclusive call are fits to weak or partial responses and may not hold up."}
{"assay": "qHTS for inhibitors of binding or entry into cells for Marburg Virus; note: potency is the fitted concentration of half-maximal effect; for activity change, negative = inhibition: % is set by controls: 0 for no effect and ±100 for the full control effect", "details": "Marburg virus pseudotyped entry inhibition, cell reporter; activity change, negative = inhibition: at 37.8 µM (top of the series) unless noted"}
{"compound": "COc1ccc(OC)c(C(c2nnnn2Cc2ccccc2)N2CCN(C3CCCCC3)CC2)c1", "note": "(stereo not drawn)", "Potency": "inconclusive: 22.4 µM [inhibitor, single point]"}
{"compound": "O=C(Nc1ccc([N+](=O)[O-])cc1)C1COc2ccccc2O1", "note": "(stereo not drawn)", "Potency": "inconclusive: 1.26 µM [inhibitor, single point]"}
{"compound": "C/C(=N\\NC(=O)c1cccc(Br)c1)c1ccccn1", "Potency": "active: 4.47 µM"}
{"compound": "O=C(CN1C2=NCCCN2c2ccccc21)c1ccc2c(c1)OCO2", "Potency": "inconclusive: 16.4 µM [inhibitor, partial curve, poor fit]"}
{"compound": "CCCCCCCC(=O)Nc1ccc(C(=O)N/N=C/c2cccc([N+](=O)[O-])c2)cc1", "Potency": "inconclusive: 1.58 µM [inhibitor, partial curve, poor fit]"}
{"compound": "Cc1ccc(O)c(-c2[nH]ncc2C(=O)c2ccc(Cl)cc2)c1", "Potency": "inconclusive: 7.08 µM [inhibitor, partial curve, poor fit]"}
{"compound": "Cc1ccc(SCC(=O)NNC(=O)CNC(=O)c2ccccc2F)cc1", "activity change, negative = inhibition": "inactive: -4.5% [at 46.1 µM]"}
{"compound": "Cc1nn(-c2ccccc2)c(Cl)c1/C=N/NS(=O)(=O)c1ccc(Br)cc1", "Potency": "inconclusive: 1 µM [activator, partial curve, poor fit]"}
{"compound": "CCN1CCOC(=O)C1CC(=O)Nc1cc(Cl)ccc1OC", "note": "(stereo not drawn)", "activity change, negative = inhibition": "inactive: -20.9% [at 46.1 µM]"}
{"compound": "CC(CNC(=O)c1ccc(N)cc1)NC(=O)c1ccc(N)cc1", "note": "(stereo not drawn)", "Potency": "inconclusive: 35.5 µM [activator, single point]"}
{"compound": "Cc1cccn2c(=O)c3cc(C(=O)NCC4CCCO4)c(=N)n(C4CCCCC4)c3nc12", "note": "(stereo not drawn)", "Potency": "inconclusive: 23.1 µM [inhibitor, single point]"}
{"compound": "CCOc1cc(C(=O)Nc2ccc(F)cc2)cc(Br)c1OC", "Potency": "inconclusive: 35.5 µM [inhibitor, single point]"}
{"compound": "Cc1cnc(C(=O)Nc2ccc(C(=O)N(C)C3CCCCC3)cc2)cn1", "activity change, negative = inhibition": "inactive: 6.02%"}
{"compound": "Cc1ccccc1CN(c1ccc(C(=O)N2CCc3ccccc3C2)cc1)S(C)(=O)=O", "Potency": "inconclusive: 3.26 µM [inhibitor, partial curve, poor fit]"}
{"compound": "COc1ccc(NC(=O)c2ccc(S(=O)(=O)N3CCOCC3)cc2)c(OC)c1", "activity change, negative = inhibition": "inactive: -16.2%"}
{"compound": "c1ccc(-c2ccc(-c3ccccc3)[nH]2)cc1", "Potency": "inconclusive: 5.01 µM [activator, single point]"}
{"compound": "O=C(/C=C/c1ccccc1)Nc1nc(-c2ccncc2)cs1", "Potency": "inconclusive: 8.91 µM [inhibitor, partial curve, poor fit]"}
{"compound": "O=C(Nc1ccon1)c1sc2ccccc2c1Cl", "Potency": "inconclusive: 4.61 µM [activator, single point]"}
{"compound": "CCOC(=O)c1ccc(S(=O)(=O)N2CCN(C(=O)c3cc(=O)c4ccccc4o3)CC2)cc1", "Potency": "inconclusive: 35.5 µM [inhibitor, single point]"}
{"compound": "CC(=O)NNc1nc(-c2ccccc2)cs1", "Potency": "inconclusive: 0.562 µM [activator, full curve, poor fit]"}
{"compound": "C[N+](C)(C)Cc1ccccc1", "Potency": "inactive"}
{"compound": "Cn1c(=O)c2cc(S(=O)(=O)Nc3ccc4c(c3)OCO4)ccc2n(C)c1=O", "activity change, negative = inhibition": "inactive: -7.33%"}
{"compound": "Cc1ccc2[nH]c3c(NCc4ccco4)ncnc3c2c1", "Potency": "active: 10 µM"}
{"compound": "CCOC(=O)C(C)/C(C)=N\\Nc1ccc([N+](=O)[O-])cc1[N+](=O)[O-]", "note": "(stereo not drawn)", "Potency": "inconclusive: 8.91 µM [inhibitor, single point]"}
{"compound": "CC12CCC(C/C1=N\\OC(=O)c1c(F)cccc1F)C2(C)C", "note": "(stereo not drawn)", "Potency": "inconclusive: 7.08 µM [activator, partial curve, poor fit]"}
{"compound": "Cc1ccccc1CNC(=O)c1ccc2c(c1)N(Cc1ccccc1)CCS2", "Potency": "active: 8.91 µM"}
{"compound": "CCN(CC)CCn1c(NCc2cc(OC)ccc2OC)nc2ccccc21", "Potency": "inconclusive: 35.5 µM [inhibitor, partial curve, poor fit]"}
{"compound": "CCN1CCN(/C=N/c2nc(C)cs2)CC1", "activity change, negative = inhibition": "inactive: 28.9%"}
{"compound": "CCOC(=O)c1c(C)[nH]c(C(=O)OCC(=O)N(C)C2CCS(=O)(=O)C2)c1C", "note": "(stereo not drawn)", "activity change, negative = inhibition": "inactive: 4.61%"}
{"compound": "O=C(CSc1nncs1)Nc1cc(-c2ccccc2)nn1-c1ccccc1", "Potency": "inconclusive: 4.11 µM [inhibitor, partial curve, poor fit]"}
{"compound": "CCOC(=O)CN1C(=O)S/C(=C\\c2ccc(-c3cccc(C(=O)O)c3C)o2)C1=O", "Potency": "inconclusive: 8.91 µM [activator, partial curve, poor fit]"}
{"compound": "CN(C)c1ccc(NC(=S)N(CCc2ccccc2)C2CC(=O)N(c3c(Cl)cccc3Cl)C2=O)cc1", "note": "(stereo not drawn)", "Potency": "active: 4.47 µM"}
{"compound": "O=C(CSc1nc2cc([N+](=O)[O-])ccc2n1-c1ccccc1)NCc1ccc2c(c1)OCO2", "Potency": "inconclusive: 0.316 µM [inhibitor, partial curve, poor fit]"}
{"compound": "CCOC(=O)c1cccc(NC(=O)C2CCN(S(=O)(=O)c3cccs3)CC2)c1", "Potency": "inconclusive: 32.6 µM [inhibitor, partial curve, poor fit]"}
{"compound": "CCOCCCN(C(=O)c1snc(C(N)=O)c1N)C(C(=O)NC1CCCC1)c1ccc(O)c(OC)c1", "note": "(stereo not drawn)", "activity change, negative = inhibition": "inactive: 8.45% [at 46.1 µM]"}
{"compound": "Cc1nn(-c2ccccc2)c(C)c1/C=N/NC(=O)c1cc(-c2ccc(Br)s2)[nH]n1", "Potency": "active: 7.3 µM"}
{"compound": "CCn1nnnc1NCc1ccc(N2CCCC2)cc1", "activity change, negative = inhibition": "inconclusive: 20.3% [activator]"}
{"compound": "COc1ccc(-c2csc(NC(=O)c3c(OC)cccc3OC)n2)cc1", "activity change, negative = inhibition": "inactive: -19.7%"}
{"compound": "COc1ccc(N2CCN(CC(=O)NCc3ccc(Cl)cc3)CC2)cc1", "Potency": "inconclusive: 0.398 µM [inhibitor, partial curve, poor fit]"}
{"compound": "O=C(CN1CCN(S(=O)(=O)N2CCOCC2)CC1)Nc1ccc(Cl)c(Cl)c1", "Potency": "inconclusive: 0.112 µM [inhibitor, full curve, poor fit]"}
{"compound": "Cc1ccc(S(=O)(=O)N2CCN(c3ccnc4cc(Cl)ccc34)CC2)cc1C", "Potency": "inconclusive: 11.2 µM [inhibitor, partial curve, poor fit]"}
{"compound": "CCOC(=O)c1cnc(-n2nc(C)cc2C)nc1N(C)C", "Potency": "inconclusive: 25.9 µM [activator, single point]"}
{"compound": "COc1ccc(N=C2C(=Nc3ccc(OC)cc3)N(c3ccc(N(C)C)cc3)C(=S)N2c2ccc(OC)cc2)cc1", "Potency": "inconclusive: 2.31 µM [inhibitor, full curve]"}
